Experimental data from PubChem BioAssay AID328 (DTP/NCI, 2004).
The list is a part of this screen's results and no random one: its compounds were picked by chemical class. Other doses and runs of a compound may be missing. T/C: endpoint of the treated group in % of that of the vehicle group. Some entries give survivors of the animals treated and no T/C: the source files T/C as zero there, which appears to mark a toxic dose or a test without result, not a measured value. Some survivor counts are full or nearly so, which does not show that the dose was tolerated: the source hardly ever lists a survival T/C far under the control, and the zero likely stands for such cases as well. Counts of survivors are from the toxicity check (mostly the fifth day) where no day follows; animals may have died later. Schedule codes are those of the source, read here as Q, the interval in days (D) or hours (H), X, the number of doses. For survival time, this PubChem deposit counts one and a half times the control or more as active, and values a quarter to a half above the control carry no call in these data; other NCI protocols may use other cut-offs. Marks such as (2×) count equal records among those shown. Some entries were tested several times; the results are listed from low to high. Some T/C values carry the count of animals alive at the toxicity check (mostly the fifth day); where neither a count nor a note follows, no animal had died by that day.

Tested on: BDF1 mice, P388 leukemia ip, median survival T/C
Test: NCI In Vivo Anticancer Drug Screen. Data for tumor model P388 Leukemia (intraperitoneal) in B6D2F1 (BDF1) mice
Details: T/C endpoint: median survival time, higher T/C = longer survival
In short: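 Survival ratio, drug arm over vehicle arm, in mice with a transplanted tumour.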

[1] = dose: 33.0 mg/kg/injection, schedule: Q04DX003 (ip), vehicle: Klucel (hydroxypropylcellulose) (HPC)
[2] = dose: 50.0 mg/kg/injection, schedule: Q01DX009 (ip), vehicle: Klucel (hydroxypropylcellulose) (HPC)
[3] = dose: 75.0 mg/kg/injection, schedule: Q01DX009 (ip), vehicle: Klucel (hydroxypropylcellulose) (HPC)
[4] = dose: 100.0 mg/kg/injection, schedule: Q04DX003 (ip), vehicle: saline with Tween-80
[5] = dose: 200.0 mg/kg/injection, schedule: Q04DX003 (ip), vehicle: saline with Tween-80
[6] = dose: 16.5 mg/kg/injection, schedule: Q04DX003 (ip), vehicle: other

## O=C(O)CCc1cccc(N(CCCl)CCCl)c1
dose: 1.5 mg/kg/injection, schedule: Q01DX009 (ip), vehicle: Klucel (hydroxypropylcellulose) (HPC)
  T/C: 100 % of control
dose: 2.3 mg/kg/injection, schedule: Q01DX009 (ip), vehicle: Klucel (hydroxypropylcellulose) (HPC)
  T/C: 90 % of control
dose: 8.2 mg/kg/injection, schedule: Q01DX009 (ip), vehicle: Klucel (hydroxypropylcellulose) (HPC)
  T/C: 131 % of control
dose: 12.0 mg/kg/injection, schedule: Q01DX009 (ip), vehicle: Klucel (hydroxypropylcellulose) (HPC)
  T/C: 113 % of control
dose: 18.75 mg/kg/injection, schedule: Q01DX009 (ip), vehicle: Klucel (hydroxypropylcellulose) (HPC)
  T/C: 136 % of control
[1]
  T/C: 118 % of control
  survivor count: 3 of 6
dose: 37.5 mg/kg/injection, schedule: Q01DX009 (ip), vehicle: Klucel (hydroxypropylcellulose) (HPC)
  T/C: 172 % of control
[2]
  T/C: 170 % of control
  survivor count: 5 of 6
dose: 50.0 mg/kg/injection, schedule: Q04DX003 (ip), vehicle: Klucel (hydroxypropylcellulose) (HPC)
  T/C: 136, 168, 195 % of control
dose: 66.0 mg/kg/injection, schedule: Q04DX003 (ip), vehicle: saline with Tween-80
  T/C: 100 % of control
[3]
  T/C: 204 and 231 % of control
  survivor count: 6 of 6
dose: 75.0 mg/kg/injection, schedule: Q04DX003 (ip), vehicle: Klucel (hydroxypropylcellulose) (HPC)
  T/C: 90 and 204 % of control
dose: 100.0 mg/kg/injection, schedule: Q04DX003 (ip), vehicle: Klucel (hydroxypropylcellulose) (HPC)
  survivor count: 0 of 6
[4]
  T/C: 125 % of control
dose: 110.0 mg/kg/injection, schedule: Q01DX009 (ip), vehicle: Klucel (hydroxypropylcellulose) (HPC)
  survivor count: 1 of 6
dose: 112.5 mg/kg/injection, schedule: Q01DX009 (ip), vehicle: Klucel (hydroxypropylcellulose) (HPC)
  survivor count: 0 of 6
dose: 132.0 mg/kg/injection, schedule: Q04DX003 (ip), vehicle: saline with Tween-80
  survivor count: 2 of 6
dose: 150.0 mg/kg/injection, schedule: Q04DX003 (ip), vehicle: saline with Tween-80
  T/C: 170 % of control
dose: 200.0 mg/kg/injection, schedule: Q04DX003 (ip), vehicle: Klucel (hydroxypropylcellulose) (HPC)
  survivor count: 0 of 6
[5]
  survivor count: 1 of 6
dose: 300.0 mg/kg/injection, schedule: Q04DX003 (ip), vehicle: saline with Tween-80
  survivor count: 0 of 6

## CC(C)OP(C)(O)=S.CC(N)c1ccccc1 (stereo not drawn)
dose: 50.0 mg/kg/injection, schedule: Q01DX005 (ip), vehicle: saline
  T/C: 94 % of control
dose: 100.0 mg/kg/injection, schedule: Q01DX005 (ip), vehicle: saline
  T/C: 101 % of control
dose: 200.0 mg/kg/injection, schedule: Q01DX005 (ip), vehicle: saline
  T/C: 101 % of control

## O=[N+]([O-])C1C(O)C(O)C([N+](=O)[O-])C(O)C1O (stereo not drawn)
dose: 12.5 mg/kg/injection, schedule: Q01DX005 (ip), vehicle: saline with Tween-80
  T/C: 132 % of control
dose: 25.0 mg/kg/injection, schedule: Q01DX005 (ip), vehicle: saline with Tween-80
  T/C: 100 % of control
dose: 50.0 mg/kg/injection, schedule: Q01DX005 (ip), vehicle: saline with Tween-80
  survivor count: 5 of 5

## NC(Cc1ccc(N(CCF)CCCl)cc1)C(=O)O (stereo not drawn)
dose: 3.12 mg/kg/injection, schedule: Q01DX009 (ip), vehicle: Klucel (hydroxypropylcellulose) (HPC)
  T/C: 138 % of control
dose: 6.25 mg/kg/injection, schedule: Q01DX009 (ip), vehicle: Klucel (hydroxypropylcellulose) (HPC)
  T/C: 169 % of control
dose: 12.5 mg/kg/injection, schedule: Q01DX009 (ip), vehicle: Klucel (hydroxypropylcellulose) (HPC)
  T/C: 203 and 230 % of control
dose: 25.0 mg/kg/injection, schedule: Q01DX009 (ip), vehicle: Klucel (hydroxypropylcellulose) (HPC)
  T/C: 230 % of control
dose: 100.0 mg/kg/injection, schedule: Q01DX009 (ip), vehicle: Klucel (hydroxypropylcellulose) (HPC)
  survivor count: 4 of 6
dose: 200.0 mg/kg/injection, schedule: Q01DX009 (ip), vehicle: Klucel (hydroxypropylcellulose) (HPC)
  survivor count: 0 of 6
dose: 400.0 mg/kg/injection, schedule: Q01DX009 (ip), vehicle: Klucel (hydroxypropylcellulose) (HPC)
  survivor count: 0 of 6

## CCCCOP(OCCCC)OCCCC
[4]
  T/C: 104 % of control
[5]
  T/C: 100 % of control
dose: 400.0 mg/kg/injection, schedule: Q04DX003 (ip), vehicle: saline with Tween-80
  T/C: 100 % of control

## O=C(N(CCCl)CCCl)C(F)(F)F
dose: 150.0 mg/kg/injection, schedule: Q04DX003 (ip), vehicle: saline
  T/C: 120 % of control
dose: 200.0 mg/kg/injection, schedule: Q04DX003 (ip), vehicle: saline
  T/C: 143 % of control
dose: 400.0 mg/kg/injection, schedule: Q04DX003 (ip), vehicle: saline
  T/C: 145 % of control
dose: 600.0 mg/kg/injection, schedule: Q04DX003 (ip), vehicle: saline
  survivor count: 3 of 6

## COC1OC(CNCCBr)C2OC(C)(C)OC12 (stereo not drawn)
dose: 2.25 mg/kg/injection, schedule: Q01DX009 (ip), vehicle: saline
  T/C: 105 % of control [5 of 6 alive]
dose: 4.5 mg/kg/injection, schedule: Q01DX009 (ip), vehicle: saline
  T/C: 122 % of control
dose: 9.0 mg/kg/injection, schedule: Q01DX009 (ip), vehicle: saline
  T/C: 188 % of control
dose: 18.0 mg/kg/injection, schedule: Q01DX009 (ip), vehicle: saline
  T/C: 205 % of control
dose: 25.0 mg/kg/injection, schedule: Q01DX001 (ip), vehicle: saline
  T/C: 163 % of control
dose: 36.0 mg/kg/injection, schedule: Q01DX009 (ip), vehicle: saline
  T/C: 250 % of control
dose: 50.0 mg/kg/injection, schedule: Q01DX001 (ip), vehicle: saline
  T/C: 181 % of control
dose: 100.0 mg/kg/injection, schedule: Q01DX001 (ip), vehicle: saline
  T/C: 190 % of control
dose: 200.0 mg/kg/injection, schedule: Q01DX001 (ip), vehicle: saline
  T/C: 181 % of control

## BrCc1cccc(CBr)c1
dose: 1.8 mg/kg/injection, schedule: Q01DX009 (ip), vehicle: other
  T/C: 90 % of control
dose: 1.8 mg/kg/injection, schedule: Q01DX009 (ip), vehicle: saline with Tween-80
  T/C: 112 % of control
dose: 2.6 mg/kg/injection, schedule: Q01DX009 (ip), vehicle: other
  T/C: 120 % of control
dose: 2.6 mg/kg/injection, schedule: Q01DX009 (ip), vehicle: saline with Tween-80
  T/C: 108 % of control
dose: 4.0 mg/kg/injection, schedule: Q01DX009 (ip), vehicle: other
  T/C: 120 % of control
dose: 4.0 mg/kg/injection, schedule: Q01DX009 (ip), vehicle: saline with Tween-80
  T/C: 116 % of control
dose: 6.0 mg/kg/injection, schedule: Q01DX009 (ip), vehicle: other
  T/C: 155 % of control [5 of 6 alive]
dose: 6.0 mg/kg/injection, schedule: Q01DX009 (ip), vehicle: saline with Tween-80
  T/C: 120 % of control
dose: 6.25 mg/kg/injection, schedule: Q01DX009 (ip), vehicle: other
  T/C: 130 % of control
dose: 6.25 mg/kg/injection, schedule: Q04DX003 (ip), vehicle: saline with Tween-80
  T/C: 100 % of control
dose: 7.33 mg/kg/injection, schedule: Q04DX003 (ip), vehicle: other
  T/C: 100 % of control
dose: 11.0 mg/kg/injection, schedule: Q04DX003 (ip), vehicle: other
  T/C: 100 % of control
dose: 12.5 mg/kg/injection, schedule: Q01DX009 (ip), vehicle: other
  survivor count: 5 of 6
dose: 12.5 mg/kg/injection, schedule: Q04DX003 (ip), vehicle: saline with Tween-80
  T/C: 118 % of control
[6]
  T/C: 140 % of control
  survivor count: 6 of 6
dose: 25.0 mg/kg/injection, schedule: Q01DX009 (ip), vehicle: other
  survivor count: 0 of 6
dose: 25.0 mg/kg/injection, schedule: Q04DX003 (ip), vehicle: other
  T/C: 100 % of control (2×)
dose: 25.0 mg/kg/injection, schedule: Q04DX003 (ip), vehicle: saline with Tween-80
  T/C: 127 % of control
dose: 37.5 mg/kg/injection, schedule: Q04DX003 (ip), vehicle: other
  survivor count: 3 of 6
